Assay in all cases: native gel or EMSA; colorless native PAGE (4-16% gradient, 4°C) of soluble extracts (20 mM HEPES pH 7.5, 20 mM KCl, 10% glycerol) of C. reinhardtii strains, immunoblot, in part after a second denaturing dimension; complexes told by co-migration and by their loss in deletion or mutant strains
Assay [1] deals with LSU E109A-R253A (LSU2mut) (Chlamydomonas reinhardtii) (UniProt P00877).
For assay [2], the target named is LSU A143W-R215A-D216A (LSU8mut) (Chlamydomonas reinhardtii) (UniProt P00877).
The target in assay [3] is Rubisco large subunit (LSU) (Chlamydomonas reinhardtii (endogenous)) (UniProt P00877).

These are yes or no findings as the source states them, for the method shown. Some entries that bind do so weakly or less than the wild type.

For “LSU E109A-R253A (LSU2mut) (from UniProt P00877 3-475)”, the binding entry in assay [1] is listed as “no binding”.

As for “LSU A143W-R215A-D216A (LSU8mut) (from UniProt P00877 3-475)”, the binding entry in assay [2] is “binds”.

Consider “Rubisco large subunit (LSU) (from UniProt P00877 3-475)”, for which the binding entry in assay [3] was “binds”.

The record behind these values is article PMC8254502.
